Patent publication US20110275699A1, “Treatment For Obesity And Diabetes” (University of California, priority 2010, published 2011)
At least one compound was matched to its structure with a doubt left.

Protein sequences, listed by entry. Tags and fused reporters are not part of them.
UniProt P97313, whole entry: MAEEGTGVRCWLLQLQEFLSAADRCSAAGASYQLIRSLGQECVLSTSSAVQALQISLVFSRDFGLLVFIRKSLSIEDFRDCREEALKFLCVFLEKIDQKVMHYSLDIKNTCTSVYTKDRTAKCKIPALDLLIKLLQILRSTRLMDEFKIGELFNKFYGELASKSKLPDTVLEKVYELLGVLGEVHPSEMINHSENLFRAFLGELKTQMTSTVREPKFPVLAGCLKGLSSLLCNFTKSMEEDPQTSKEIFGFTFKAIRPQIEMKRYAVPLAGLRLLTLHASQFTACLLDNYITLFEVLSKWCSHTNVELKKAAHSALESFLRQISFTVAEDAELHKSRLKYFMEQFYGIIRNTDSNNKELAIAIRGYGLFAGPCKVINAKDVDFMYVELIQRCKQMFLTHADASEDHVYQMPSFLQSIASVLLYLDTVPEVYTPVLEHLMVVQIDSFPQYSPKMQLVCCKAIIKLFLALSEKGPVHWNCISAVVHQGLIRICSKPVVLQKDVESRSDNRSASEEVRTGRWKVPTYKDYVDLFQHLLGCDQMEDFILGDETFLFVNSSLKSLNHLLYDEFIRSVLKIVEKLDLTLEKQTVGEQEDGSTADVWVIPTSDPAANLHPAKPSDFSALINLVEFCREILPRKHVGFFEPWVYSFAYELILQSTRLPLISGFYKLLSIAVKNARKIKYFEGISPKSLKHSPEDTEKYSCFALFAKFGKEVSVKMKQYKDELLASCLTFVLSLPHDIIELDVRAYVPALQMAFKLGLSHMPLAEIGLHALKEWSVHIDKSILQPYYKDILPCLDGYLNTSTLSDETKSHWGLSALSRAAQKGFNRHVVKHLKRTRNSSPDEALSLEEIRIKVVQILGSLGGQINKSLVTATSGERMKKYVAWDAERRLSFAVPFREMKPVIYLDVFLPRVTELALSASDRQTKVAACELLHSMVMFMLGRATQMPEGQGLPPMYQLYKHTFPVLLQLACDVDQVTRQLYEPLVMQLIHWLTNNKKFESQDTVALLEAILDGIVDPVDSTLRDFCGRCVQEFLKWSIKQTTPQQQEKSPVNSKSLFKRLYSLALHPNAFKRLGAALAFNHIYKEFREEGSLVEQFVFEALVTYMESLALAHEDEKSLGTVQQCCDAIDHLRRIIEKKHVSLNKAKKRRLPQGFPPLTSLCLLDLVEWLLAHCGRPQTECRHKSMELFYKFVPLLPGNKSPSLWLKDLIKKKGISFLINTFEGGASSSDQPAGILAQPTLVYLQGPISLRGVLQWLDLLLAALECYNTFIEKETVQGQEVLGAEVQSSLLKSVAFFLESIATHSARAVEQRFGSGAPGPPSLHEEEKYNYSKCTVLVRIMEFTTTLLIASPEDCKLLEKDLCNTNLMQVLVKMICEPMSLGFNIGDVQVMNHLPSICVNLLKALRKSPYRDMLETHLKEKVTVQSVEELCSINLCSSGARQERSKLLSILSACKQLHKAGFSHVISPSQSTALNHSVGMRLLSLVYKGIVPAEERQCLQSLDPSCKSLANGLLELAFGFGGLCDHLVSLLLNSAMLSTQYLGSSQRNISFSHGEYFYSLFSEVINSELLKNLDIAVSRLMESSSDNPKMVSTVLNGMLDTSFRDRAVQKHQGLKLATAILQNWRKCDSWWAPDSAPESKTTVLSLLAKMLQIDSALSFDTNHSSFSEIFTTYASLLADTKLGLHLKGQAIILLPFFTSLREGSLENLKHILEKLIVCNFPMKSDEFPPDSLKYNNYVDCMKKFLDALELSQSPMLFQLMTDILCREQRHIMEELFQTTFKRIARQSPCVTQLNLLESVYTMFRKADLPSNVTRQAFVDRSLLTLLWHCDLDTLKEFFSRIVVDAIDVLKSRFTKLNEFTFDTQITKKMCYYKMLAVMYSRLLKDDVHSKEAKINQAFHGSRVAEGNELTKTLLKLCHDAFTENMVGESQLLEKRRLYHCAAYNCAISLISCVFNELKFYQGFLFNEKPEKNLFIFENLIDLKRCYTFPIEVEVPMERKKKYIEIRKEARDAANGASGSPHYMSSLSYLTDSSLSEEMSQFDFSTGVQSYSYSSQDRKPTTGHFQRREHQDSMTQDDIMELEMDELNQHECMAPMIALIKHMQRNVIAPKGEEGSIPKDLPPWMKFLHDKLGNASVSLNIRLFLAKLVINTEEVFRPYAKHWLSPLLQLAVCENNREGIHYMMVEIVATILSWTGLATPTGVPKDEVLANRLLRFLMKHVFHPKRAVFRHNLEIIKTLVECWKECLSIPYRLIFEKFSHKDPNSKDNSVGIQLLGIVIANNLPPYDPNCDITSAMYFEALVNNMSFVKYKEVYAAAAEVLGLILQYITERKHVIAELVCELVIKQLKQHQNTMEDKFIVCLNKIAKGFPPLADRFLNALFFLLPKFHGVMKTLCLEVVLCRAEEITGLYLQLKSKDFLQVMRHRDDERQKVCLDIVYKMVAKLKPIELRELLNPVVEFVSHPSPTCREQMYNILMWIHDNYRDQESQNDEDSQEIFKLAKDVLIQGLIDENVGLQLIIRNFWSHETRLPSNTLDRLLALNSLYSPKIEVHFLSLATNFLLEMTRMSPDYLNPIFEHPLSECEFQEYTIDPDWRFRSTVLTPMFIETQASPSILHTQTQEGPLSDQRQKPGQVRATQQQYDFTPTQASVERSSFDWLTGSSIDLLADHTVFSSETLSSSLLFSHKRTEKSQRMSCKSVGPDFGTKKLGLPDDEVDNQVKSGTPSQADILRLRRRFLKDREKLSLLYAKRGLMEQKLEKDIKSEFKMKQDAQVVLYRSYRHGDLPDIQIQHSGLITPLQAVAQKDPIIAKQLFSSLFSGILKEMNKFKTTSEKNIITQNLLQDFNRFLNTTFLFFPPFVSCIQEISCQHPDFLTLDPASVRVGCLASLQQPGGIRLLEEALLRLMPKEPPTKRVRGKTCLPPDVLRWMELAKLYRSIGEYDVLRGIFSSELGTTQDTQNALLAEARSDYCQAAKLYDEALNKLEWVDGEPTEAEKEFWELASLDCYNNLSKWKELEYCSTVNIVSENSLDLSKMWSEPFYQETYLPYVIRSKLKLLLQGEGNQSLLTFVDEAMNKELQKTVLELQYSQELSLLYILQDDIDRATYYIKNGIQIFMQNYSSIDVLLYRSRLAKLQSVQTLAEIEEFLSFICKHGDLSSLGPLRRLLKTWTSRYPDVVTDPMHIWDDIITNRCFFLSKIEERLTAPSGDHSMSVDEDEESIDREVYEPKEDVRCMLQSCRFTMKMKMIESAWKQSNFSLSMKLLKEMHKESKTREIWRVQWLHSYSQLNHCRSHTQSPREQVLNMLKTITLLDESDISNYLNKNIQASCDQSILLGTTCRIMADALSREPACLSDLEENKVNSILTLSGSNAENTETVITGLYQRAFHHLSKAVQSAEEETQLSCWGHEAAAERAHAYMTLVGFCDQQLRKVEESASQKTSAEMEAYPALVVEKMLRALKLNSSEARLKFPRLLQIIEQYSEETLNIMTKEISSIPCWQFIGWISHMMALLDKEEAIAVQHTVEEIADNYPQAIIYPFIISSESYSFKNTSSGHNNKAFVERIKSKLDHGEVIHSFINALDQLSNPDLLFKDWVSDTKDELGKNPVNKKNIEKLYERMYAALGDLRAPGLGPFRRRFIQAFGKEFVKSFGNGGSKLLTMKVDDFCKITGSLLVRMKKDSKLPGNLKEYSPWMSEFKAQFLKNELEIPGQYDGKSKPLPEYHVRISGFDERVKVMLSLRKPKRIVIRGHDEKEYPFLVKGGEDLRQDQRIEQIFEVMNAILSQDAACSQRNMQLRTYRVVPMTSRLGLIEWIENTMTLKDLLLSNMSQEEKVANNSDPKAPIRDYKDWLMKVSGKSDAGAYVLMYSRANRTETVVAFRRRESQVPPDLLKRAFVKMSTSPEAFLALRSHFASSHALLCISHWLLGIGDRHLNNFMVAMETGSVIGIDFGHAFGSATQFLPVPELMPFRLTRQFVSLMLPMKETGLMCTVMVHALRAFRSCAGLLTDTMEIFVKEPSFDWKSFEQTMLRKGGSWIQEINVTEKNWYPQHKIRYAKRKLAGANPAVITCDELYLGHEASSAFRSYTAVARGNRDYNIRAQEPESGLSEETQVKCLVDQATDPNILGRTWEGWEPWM

Key:
DNA-PK [1] = molecular target: T1, DNA-PK (Homo sapiens, UniProt P78527); assay: In vitro phosphorylation of bacterially expressed USF-1 by DNA-PK; type: biochemical; settings: wortmannin 2 uM
T1 construct: purchased Promega

DNA-PK [2] = molecular target: T2, DNA-PK (Mus musculus, UniProt P97313); assay: DNA-PK kinase assay (SignaTect) in liver nuclear extracts; type: biochemical; settings: liver nuclear extracts pretreated with wortmannin 2 uM; DNA-PK-specific biotinylated p53 peptide substrate
T2 construct: from tissue; host or cells: mouse liver nuclear extracts (C57BL/6J, fasted or fed)

In the case of `COC[C@H]1OC(=O)c2coc3c2[C@@]1(C)C1=C(C3=O)[C@@H]2CCC(=O)[C@@]2(C)C[C@H]1OC(C)=O` [wortmannin], the “S262 phosphorylation of USF-1 by DNA-PK” value (DNA-PK [1]) is reported as “abolished” and the DNA-PK activity (DNA-PK [2]) is reported as “drastically reduced”.
